Laboratory results as given in publication PMC13423832.
Results are given in words; binding and its absence hold for the method and conditions named. Binding calls can cover weak binding; strength is not graded here. For part of these data: Tags and fused reporters may be left off the sequences shown. For part of these data: Binding seen in cells or lysates may run through a third protein.

Protein sequences, listed by entry. Tags and fused reporters are not part of them. Lines headed by an entry give the natural chain unless they say otherwise; changes in a name come on top.
UniProt P20674: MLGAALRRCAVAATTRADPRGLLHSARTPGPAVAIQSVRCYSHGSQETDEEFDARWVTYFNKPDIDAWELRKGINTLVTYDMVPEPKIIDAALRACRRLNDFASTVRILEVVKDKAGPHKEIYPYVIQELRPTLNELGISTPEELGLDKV
UniProt Q9NQC3: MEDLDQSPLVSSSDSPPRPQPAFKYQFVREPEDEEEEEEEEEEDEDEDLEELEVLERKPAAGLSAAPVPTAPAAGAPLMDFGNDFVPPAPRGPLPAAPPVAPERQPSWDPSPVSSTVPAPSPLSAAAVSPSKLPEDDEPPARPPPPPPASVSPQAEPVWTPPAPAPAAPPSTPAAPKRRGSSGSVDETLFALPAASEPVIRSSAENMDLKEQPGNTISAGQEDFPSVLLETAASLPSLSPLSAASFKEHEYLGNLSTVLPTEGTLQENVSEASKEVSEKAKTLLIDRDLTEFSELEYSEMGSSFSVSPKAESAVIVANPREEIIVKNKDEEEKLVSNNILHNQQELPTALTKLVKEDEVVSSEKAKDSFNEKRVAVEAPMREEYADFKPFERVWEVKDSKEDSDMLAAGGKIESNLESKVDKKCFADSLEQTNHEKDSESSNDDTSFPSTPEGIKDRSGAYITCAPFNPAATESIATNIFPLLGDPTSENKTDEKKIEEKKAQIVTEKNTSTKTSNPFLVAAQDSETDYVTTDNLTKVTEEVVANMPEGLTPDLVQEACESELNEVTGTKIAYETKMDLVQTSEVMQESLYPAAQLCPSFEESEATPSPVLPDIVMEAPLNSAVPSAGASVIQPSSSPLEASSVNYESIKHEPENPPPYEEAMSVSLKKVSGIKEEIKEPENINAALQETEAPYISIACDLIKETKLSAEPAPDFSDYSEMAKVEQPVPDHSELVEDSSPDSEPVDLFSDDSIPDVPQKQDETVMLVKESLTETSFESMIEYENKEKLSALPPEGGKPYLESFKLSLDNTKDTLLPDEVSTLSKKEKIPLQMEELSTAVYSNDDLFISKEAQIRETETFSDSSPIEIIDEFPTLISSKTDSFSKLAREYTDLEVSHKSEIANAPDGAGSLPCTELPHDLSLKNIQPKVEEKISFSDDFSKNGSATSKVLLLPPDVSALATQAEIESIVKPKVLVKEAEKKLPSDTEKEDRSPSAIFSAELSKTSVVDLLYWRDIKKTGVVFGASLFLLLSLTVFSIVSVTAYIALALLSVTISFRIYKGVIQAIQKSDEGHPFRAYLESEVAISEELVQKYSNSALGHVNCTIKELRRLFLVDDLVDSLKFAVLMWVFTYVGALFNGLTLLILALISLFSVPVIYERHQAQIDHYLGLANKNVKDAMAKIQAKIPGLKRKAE

Columns and labels:
[1] = molecular target: T1, RTNR-FLAG-His (Nogo66 receptor) on HEK293T cells (UniProt Q9BZR6); test: alkaline phosphatase (AP) fusion protein binding to cells; 100 nM purified AP fusion protein in HBAH buffer (pH 7.45) on HEK293T cells stably expressing RTNR-FLAG-His, 4 °C, 3 h; five washes; cells lysed, heated at 65 °C, bound heat-stable AP activity read with p-NPP at 405 nm; AP fusion proteins also pre-treated with asciminib (10 uM, 15 min); only the binder purified
T1 sequence: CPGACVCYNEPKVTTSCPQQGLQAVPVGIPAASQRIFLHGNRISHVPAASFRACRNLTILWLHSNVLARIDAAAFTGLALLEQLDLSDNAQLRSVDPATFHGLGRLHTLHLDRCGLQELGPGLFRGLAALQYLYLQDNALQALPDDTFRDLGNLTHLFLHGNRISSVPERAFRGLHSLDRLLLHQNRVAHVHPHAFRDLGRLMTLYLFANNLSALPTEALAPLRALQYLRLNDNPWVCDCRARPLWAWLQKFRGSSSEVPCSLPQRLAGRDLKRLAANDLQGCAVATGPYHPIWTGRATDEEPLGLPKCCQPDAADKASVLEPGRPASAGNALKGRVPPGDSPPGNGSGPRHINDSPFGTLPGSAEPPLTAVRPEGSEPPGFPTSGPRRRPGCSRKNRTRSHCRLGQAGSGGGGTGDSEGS

T79G-COX5A-FLAG = T79G-COX5A-FLAG (UniProt P20674); test: co-IP; FLAG immunoprecipitation from lysates (0.3% CHAPS in PBS) of HEK293T transiently overexpressing FLAG-tagged GFP, wild-type or mutant COX5A; cells untreated or treated with asciminib (10 uM, 1 h) with or without UV; blot for PMPCB
T79W-COX5A-FLAG = T79W-COX5A-FLAG (UniProt P20674); test: as above
Y80W-COX5A-FLAG = Y80W-COX5A-FLAG (UniProt P20674); test: as above
COX5A-FLAG, wild type = COX5A-FLAG, wild type (UniProt P20674); test: as above
D81W-COX5A-FLAG = D81W-COX5A-FLAG (UniProt P20674); test: as above

Measured: binding

AP-Nogo66-His, wild type (alkaline phosphatase fusion of the NOGO66 domain of reticulon-4) (from UniProt Q9NQC3) (domain or fragment)
binds: [1]

B1: PMPCB, beta subunit of the mitochondrial-processing peptidase (enzyme, UniProt O75439 44-489)
chain: STQAATQVVLNVPETRVTCLESGLRVASEDSGLSTCTVGLWIDAGSRYENEKNNGTAHFLEHMAFKGTKKRSQLDLELEIENMGAHLNAYTSREQTVYYAKAFSKDLPRAVEILADIIQNSTLGEAEIERERGVILREMQEVETNLQEVVFDYLHATAYQNTALGRTILGPTENIKSISRKDLVDYITTHYKGPRIVLAAAGGVSHDELLDLAKFHFGDSLCTHKGEIPALPPCKFTGSEIRVRDDKMPLAHLAIAVEAVGWAHPDTICLMVANTLIGNWDRSFGGGMNLSSKLAQLTCHGNLCHSFQSFNTSYTDTGLWGLYMVCESSTVADMLHVVQKEWMRLCTSVTESEVARARNLLKTNMLLQLDGSTPICEDIGRQMLCYNRRIPIPELEARIDAVNAETIREVCTKYIYNRSPAIAAVGPIKQLPDFKQIRSNMCWLRD
not listed: [1]
binds: all other assays above
